Source: PubChem BioAssay AID686937 (Drosophila RNAi Screening Center, 2013)
Assay: 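Genes whose loss weakens secretory pathway function in fly cells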 (primary screen). Cell system: Drosophila S2 cells expressing secreted horseradish peroxidase. Knock-down reagent: long dsRNA against Drosophila genes. Timing: about 5.5 days (5 days dsRNA, then 12 h reporter induction). Challenge: reporter expression induced after 5 days of dsRNA, read 12 h later; inducer not stated. Measured: 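After 5 days of dsRNA and 12 h of reporter induction, medium peroxidase read by chemiluminescence and scored as per-plate z-score; higher values mean more reporter released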. Direction: z-score: higher = more reporter secreted into medium.
In all, the deposit lists about 23,000 reagents; shown is a random part of those with a known target gene and a result. 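Reduced-secretion tags in replicate 1 do not always agree with the z-scores; no criterion for assigning the tags was given.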 Names joined by + are all predicted targets of the reagent. Further read-outs or replicates are left out here. Not stated in the record: the amount of reagent.

sev (sevenless) [DRSC20372] — z-score, replicate 1 = 0.39
CG9231 [DRSC11054] — z-score, replicate 1 = 0.37
Ptpa (Phosphotyrosyl phosphatase activator) [DRSC00776] — z-score, replicate 1 = 0.22
CG12929 [DRSC06242] — z-score, replicate 1 = 0.15
Lcp3 (Larval cuticle protein 3) [DRSC07457] — z-score, replicate 1 = 0.24
Vang (Van Gogh) [DRSC07570] — z-score, replicate 1 = 0.48
CG11357 [DRSC08183] — z-score, replicate 1 = 0.37
CG17751 [DRSC15261] — z-score, replicate 1 = 0.33
CG17751 [DRSC22837] — z-score, replicate 1 = -0.22
CG1113 [DRSC12163] — z-score, replicate 1 = 0.32
hfp (half pint) [DRSC08731] — z-score, replicate 1 = -0.58
hfp (half pint) [DRSC08732] — z-score, replicate 1 = 0.37
hfp (half pint) [DRSC22408] — z-score, replicate 1 = 0.22
Octalpha2R (alpha2-adrenergic-like octopamine receptor) [DRSC13319] — z-score, replicate 1 = 0.14
Octalpha2R (alpha2-adrenergic-like octopamine receptor) [DRSC15314] — z-score, replicate 1 = 0.29
djl (don juan like) [DRSC12578] — z-score, replicate 1 = 0.28
CG4230 [DRSC02740] — z-score, replicate 1 = 0.09
Df31 (Decondensation factor 31) [DRSC03738] — z-score, replicate 1 = 0.14
Df31 (Decondensation factor 31) [DRSC22163] — z-score, replicate 1 = 0.04
alpha4GT2 (alpha1,4-galactosyltransferase 2) [DRSC13732] — z-score, replicate 1 = 0.51
alpha4GT2 (alpha1,4-galactosyltransferase 2) [DRSC15905] — z-score, replicate 1 = 0.25

8 entries already listed, arranged by “z-score, replicate 1”, lowest first:
hfp (half pint) [DRSC08731] — z-score, replicate 1 = -0.58
CG4230 [DRSC02740] — z-score, replicate 1 = 0.09
Octalpha2R (alpha2-adrenergic-like octopamine receptor) [DRSC13319] — z-score, replicate 1 = 0.14
Df31 (Decondensation factor 31) [DRSC03738] — z-score, replicate 1 = 0.14
hfp (half pint) [DRSC22408] — z-score, replicate 1 = 0.22
djl (don juan like) [DRSC12578] — z-score, replicate 1 = 0.28
Octalpha2R (alpha2-adrenergic-like octopamine receptor) [DRSC15314] — z-score, replicate 1 = 0.29
hfp (half pint) [DRSC08732] — z-score, replicate 1 = 0.37

Further entries follow:
OtopLc (Otopetrin-like c) [DRSC18082] — z-score, replicate 1 = 0.28
OtopLc (Otopetrin-like c) [DRSC18083] — z-score, replicate 1 = -2.33
OtopLc (Otopetrin-like c) [DRSC18132] — z-score, replicate 1 = 0.14
ringer (ringmaker) [DRSC10455] — z-score, replicate 1 = 0.06
mnb (minibrain) [DRSC20058] — z-score, replicate 1 = -0.94
mnb (minibrain) [DRSC20353] — z-score, replicate 1 = 0.11
spirit (Serine Protease Immune Response Integrator) [DRSC18202] — z-score, replicate 1 = 0.29
Uro (Urate oxidase) [DRSC03469] — z-score, replicate 1 = 0.57
CG34316 + asRNA:CR43471 [DRSC13080] — z-score, replicate 1 = 0.41
ko (knockout) [DRSC11893] — z-score, replicate 1 = 0.26
Pten (Phosphatase and tensin homolog) [DRSC03402] — z-score, replicate 1 = 0.32
SC35 (SR family splicing factor SC35) [DRSC02502] — z-score, replicate 1 = -2.03
SC35 (SR family splicing factor SC35) [DRSC03425] — z-score, replicate 1 = -0.45
Stt3A [DRSC20514] — z-score, replicate 1 = -0.13
CG6656 [DRSC16085] — z-score, replicate 1 = 0.36
Gp93 (Glycoprotein 93) [DRSC15827] — z-score, replicate 1 = 0.12
Ttc26 (Tetratricopeptide repeat domain 26) [DRSC15591] — z-score, replicate 1 = 0.76
CG3021 [DRSC18165] — z-score, replicate 1 = 0.44
CG3021 [DRSC18652] — z-score, replicate 1 = 0.52
PpY-55A (Protein phosphatase Y at 55A) [DRSC07513] — z-score, replicate 1 = 0.28
CG43996 + CG43997 [DRSC19456] — z-score, replicate 1 = 0.24
CG43996 + CG43997 [DRSC19457] — z-score, replicate 1 = 0.24
Argl + CG9515 [DRSC03243] — z-score, replicate 1 = 0.27
Argl + CG9515 [DRSC03245] — z-score, replicate 1 = 0.5
CG3726 [DRSC18320] — z-score, replicate 1 = 0.05
Sptz (Spastizin) [DRSC15758] — z-score, replicate 1 = 0.34
CG30291 [DRSC03842] — z-score, replicate 1 = -0.27
Polr2G (RNA polymerase II subunit G) [DRSC16068] — z-score, replicate 1 = -4.88
CG32638 [DRSC18968] — z-score, replicate 1 = 0.15
CG13614 [DRSC14617] — z-score, replicate 1 = 0.19
